Assay results from PMC5493759, “Neurovascular EGFL7 regulates adult neurogenesis in the subventricular zone and thereby affects olfactory perception” (Nature Communications, 2017).
No constants are given. Whether binding was seen depends on the method and setting. In cells and extracts the contact can be indirect. Binding calls can cover weak binding; strength is not graded here. Sequences can lack the tags named with a protein.

The chains behind the UniProt entries cited, without tags or fusion partners. Where a name states a change or a piece, a line headed by the entry shows the natural chain unless it says otherwise.
UniProt Q01705: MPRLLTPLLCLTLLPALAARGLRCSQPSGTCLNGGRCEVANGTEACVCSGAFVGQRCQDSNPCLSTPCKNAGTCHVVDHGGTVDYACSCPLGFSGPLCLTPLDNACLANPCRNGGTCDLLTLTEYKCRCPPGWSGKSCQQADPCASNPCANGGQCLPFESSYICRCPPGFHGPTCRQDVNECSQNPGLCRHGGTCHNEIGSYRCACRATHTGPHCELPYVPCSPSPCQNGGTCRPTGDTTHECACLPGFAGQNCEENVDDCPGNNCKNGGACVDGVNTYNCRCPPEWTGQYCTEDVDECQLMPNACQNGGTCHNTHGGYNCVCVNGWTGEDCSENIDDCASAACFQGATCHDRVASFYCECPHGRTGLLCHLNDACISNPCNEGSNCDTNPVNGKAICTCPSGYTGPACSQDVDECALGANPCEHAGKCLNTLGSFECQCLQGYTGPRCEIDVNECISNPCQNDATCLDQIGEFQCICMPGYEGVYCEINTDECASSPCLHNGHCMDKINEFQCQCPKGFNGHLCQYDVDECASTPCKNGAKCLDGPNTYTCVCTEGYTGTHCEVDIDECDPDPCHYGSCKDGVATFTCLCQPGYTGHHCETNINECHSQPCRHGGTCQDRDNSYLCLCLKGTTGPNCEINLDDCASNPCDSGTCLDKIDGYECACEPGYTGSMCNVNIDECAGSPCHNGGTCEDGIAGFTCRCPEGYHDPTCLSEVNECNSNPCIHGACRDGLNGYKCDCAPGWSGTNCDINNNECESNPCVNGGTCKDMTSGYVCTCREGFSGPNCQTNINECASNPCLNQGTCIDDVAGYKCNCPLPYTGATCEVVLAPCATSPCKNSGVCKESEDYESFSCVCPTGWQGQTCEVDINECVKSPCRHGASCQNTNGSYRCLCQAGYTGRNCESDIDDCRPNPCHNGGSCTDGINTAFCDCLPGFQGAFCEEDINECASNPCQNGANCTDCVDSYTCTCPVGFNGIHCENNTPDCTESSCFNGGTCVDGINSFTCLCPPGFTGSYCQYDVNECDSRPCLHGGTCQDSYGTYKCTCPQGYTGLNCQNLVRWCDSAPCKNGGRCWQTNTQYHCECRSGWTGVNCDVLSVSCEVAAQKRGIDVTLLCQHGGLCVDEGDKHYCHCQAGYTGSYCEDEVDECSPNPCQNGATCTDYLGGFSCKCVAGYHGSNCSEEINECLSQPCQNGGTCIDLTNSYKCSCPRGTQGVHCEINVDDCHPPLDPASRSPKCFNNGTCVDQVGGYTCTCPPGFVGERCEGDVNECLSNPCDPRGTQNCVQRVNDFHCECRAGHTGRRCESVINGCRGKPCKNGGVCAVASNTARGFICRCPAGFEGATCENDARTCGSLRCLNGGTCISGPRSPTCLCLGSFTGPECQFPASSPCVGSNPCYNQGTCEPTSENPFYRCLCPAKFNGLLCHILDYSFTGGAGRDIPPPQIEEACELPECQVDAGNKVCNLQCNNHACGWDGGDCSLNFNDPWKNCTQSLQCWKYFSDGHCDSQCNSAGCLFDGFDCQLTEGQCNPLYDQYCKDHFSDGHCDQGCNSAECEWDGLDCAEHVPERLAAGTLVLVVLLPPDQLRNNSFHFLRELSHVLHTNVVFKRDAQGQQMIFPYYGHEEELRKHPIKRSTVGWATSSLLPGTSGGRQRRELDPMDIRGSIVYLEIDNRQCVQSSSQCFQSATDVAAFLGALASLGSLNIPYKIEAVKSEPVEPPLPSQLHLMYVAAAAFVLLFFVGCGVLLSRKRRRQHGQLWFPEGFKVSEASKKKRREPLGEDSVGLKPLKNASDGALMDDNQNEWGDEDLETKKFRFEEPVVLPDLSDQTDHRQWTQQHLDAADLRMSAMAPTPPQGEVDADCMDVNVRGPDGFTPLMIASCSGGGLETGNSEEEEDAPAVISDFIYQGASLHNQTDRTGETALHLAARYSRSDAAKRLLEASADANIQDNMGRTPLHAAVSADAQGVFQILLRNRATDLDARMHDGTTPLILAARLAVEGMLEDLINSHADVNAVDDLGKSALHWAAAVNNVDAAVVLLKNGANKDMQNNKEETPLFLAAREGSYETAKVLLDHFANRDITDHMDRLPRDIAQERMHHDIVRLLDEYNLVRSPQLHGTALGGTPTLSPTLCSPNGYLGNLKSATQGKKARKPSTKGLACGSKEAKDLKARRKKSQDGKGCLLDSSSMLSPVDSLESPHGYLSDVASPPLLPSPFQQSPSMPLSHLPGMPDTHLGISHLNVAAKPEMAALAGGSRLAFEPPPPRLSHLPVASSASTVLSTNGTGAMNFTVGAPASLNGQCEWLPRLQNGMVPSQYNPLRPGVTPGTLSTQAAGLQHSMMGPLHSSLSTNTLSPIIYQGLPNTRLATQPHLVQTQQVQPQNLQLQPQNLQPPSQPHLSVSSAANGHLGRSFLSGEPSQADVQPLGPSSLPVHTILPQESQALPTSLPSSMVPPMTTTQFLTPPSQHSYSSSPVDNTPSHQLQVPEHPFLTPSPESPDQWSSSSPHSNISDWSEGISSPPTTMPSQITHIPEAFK

Target: V5-tagged Notch1-ECD deletion mutant Notch1-Δ24–29 (UniProt Q01705)
Test: co-IP; Flag-tagged EGFL7 co-expressed with V5-tagged Notch ECDs or Notch1-ECD deletion mutants in HEK293; lysate immunoprecipitated with Immunosorb A overnight at 4 °C; quantitative western blot (Odyssey); n=3

B1: Flag-tagged EGFL7 (epidermal growth factor-like protein 7) (natural protein, UniProt Q9QXT5 22-275, looked up)
chain: EHVYRPSRRVCTVGISGGSISETFVQRVYQPYLTTCDGHRACSTYRTIYRTAYRRSPGVTPARPRYACCPGWKRTSGLPGACGAAICQPPCGNGGSCIRPGHCRCPVGWQGDTCQTDVDECSTGEASCPQRCVNTVGSYWCQGWEGQSPSADGTRCLSKEGPSPVAPNPTAGVDSMAREEVYRLQARVDVLEQKLQLVLAPLHSLASRSTEHGLQDPGSLLAHSFQQLDRIDSLSEQVSFLEEHLGSCSCKKDL
notes: epidermal growth factor-like protein 7 (EGFL7); the same molecule is used here; source: HEK293, transiently transfected, in lysate
binding: binds
